The target of this test is β catenin (mouse (endogenous in mouse brain)) (UniProt Q02248). The experiment in a line: co-IP; 200 µg brain homogenate (0.025 M Tris, 0.15 M NaCl, 0.001 M EDTA, 1% NP-40, 5% glycerol, pH 7.4) incubated overnight at 4°C with anti-β catenin antibody, protein A beads, five washes; immunoblot for N-cadherin; normothermic or heat acclimated mice, sham or 6, 12 or 24 h after closed head injury.

Chains of the proteins cited; added tags and fusions are not shown. Residues count along the entry.
UniProt Q02248: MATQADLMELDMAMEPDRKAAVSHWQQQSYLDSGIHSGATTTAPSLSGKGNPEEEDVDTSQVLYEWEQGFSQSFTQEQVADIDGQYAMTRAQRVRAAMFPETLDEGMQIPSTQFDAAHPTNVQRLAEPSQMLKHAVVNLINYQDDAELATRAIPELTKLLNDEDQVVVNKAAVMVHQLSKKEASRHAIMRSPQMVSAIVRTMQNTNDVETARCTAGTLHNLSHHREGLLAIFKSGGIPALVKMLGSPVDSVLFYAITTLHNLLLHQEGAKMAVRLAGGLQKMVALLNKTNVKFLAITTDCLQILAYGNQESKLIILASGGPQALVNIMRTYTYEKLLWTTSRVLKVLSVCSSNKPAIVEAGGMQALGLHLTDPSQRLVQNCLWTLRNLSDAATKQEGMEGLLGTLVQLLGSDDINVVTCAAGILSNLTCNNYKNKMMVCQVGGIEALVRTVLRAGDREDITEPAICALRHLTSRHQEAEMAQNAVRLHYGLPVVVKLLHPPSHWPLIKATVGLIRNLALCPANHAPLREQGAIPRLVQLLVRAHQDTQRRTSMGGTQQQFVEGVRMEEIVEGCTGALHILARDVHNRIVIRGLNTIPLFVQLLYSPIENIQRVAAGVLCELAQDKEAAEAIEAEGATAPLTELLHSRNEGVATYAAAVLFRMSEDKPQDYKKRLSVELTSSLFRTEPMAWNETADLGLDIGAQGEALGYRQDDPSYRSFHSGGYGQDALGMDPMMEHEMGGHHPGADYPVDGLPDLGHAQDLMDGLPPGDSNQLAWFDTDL
UniProt P15116, residues 160-906: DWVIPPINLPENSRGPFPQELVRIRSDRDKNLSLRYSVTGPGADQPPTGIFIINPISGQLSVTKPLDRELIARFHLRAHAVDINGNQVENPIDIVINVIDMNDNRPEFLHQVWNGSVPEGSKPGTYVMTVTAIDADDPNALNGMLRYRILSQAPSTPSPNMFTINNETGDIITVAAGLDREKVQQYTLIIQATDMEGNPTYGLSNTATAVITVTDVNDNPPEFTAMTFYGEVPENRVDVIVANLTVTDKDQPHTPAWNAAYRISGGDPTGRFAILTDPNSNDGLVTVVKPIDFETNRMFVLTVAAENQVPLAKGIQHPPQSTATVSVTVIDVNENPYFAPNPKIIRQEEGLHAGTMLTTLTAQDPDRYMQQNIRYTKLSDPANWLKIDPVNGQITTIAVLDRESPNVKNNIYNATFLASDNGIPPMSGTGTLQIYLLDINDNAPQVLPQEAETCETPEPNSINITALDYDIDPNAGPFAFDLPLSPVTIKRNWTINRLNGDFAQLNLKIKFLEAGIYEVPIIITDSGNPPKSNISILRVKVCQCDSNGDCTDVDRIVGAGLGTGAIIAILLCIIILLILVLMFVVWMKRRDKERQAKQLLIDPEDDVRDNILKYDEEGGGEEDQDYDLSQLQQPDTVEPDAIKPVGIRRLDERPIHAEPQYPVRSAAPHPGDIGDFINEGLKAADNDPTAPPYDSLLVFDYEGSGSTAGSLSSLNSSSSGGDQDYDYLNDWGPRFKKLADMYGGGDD

Our source for the binding values is paper PMC3790702.

Results are given in words; binding and its absence hold for the method and conditions named. Binding seen in cells or lysates may run through a third protein. Some entries that bind do so weakly or less than the wild type.

In the case of “N-cadherin (from UniProt P15116 160-906)”, the binding result is given as “binds”.
